Library screen at single concentrations

By UniProt entry, the sequences of proteins in these tests, tags left out. Residues count along the entry.
UniProt P9WPC5, whole entry: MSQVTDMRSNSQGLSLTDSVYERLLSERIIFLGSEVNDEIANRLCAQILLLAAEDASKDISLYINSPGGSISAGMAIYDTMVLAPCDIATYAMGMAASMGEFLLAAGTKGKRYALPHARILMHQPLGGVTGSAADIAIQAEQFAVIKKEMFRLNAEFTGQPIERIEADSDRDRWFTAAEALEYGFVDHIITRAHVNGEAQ
UniProt P9WPC3, whole entry partner: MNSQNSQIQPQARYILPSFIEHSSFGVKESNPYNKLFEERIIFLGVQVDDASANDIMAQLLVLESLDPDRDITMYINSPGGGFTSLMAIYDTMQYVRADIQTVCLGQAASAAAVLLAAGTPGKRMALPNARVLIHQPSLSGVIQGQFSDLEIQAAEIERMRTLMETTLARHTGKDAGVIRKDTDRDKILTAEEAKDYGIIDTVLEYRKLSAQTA
UniProt P9WFT3, whole entry: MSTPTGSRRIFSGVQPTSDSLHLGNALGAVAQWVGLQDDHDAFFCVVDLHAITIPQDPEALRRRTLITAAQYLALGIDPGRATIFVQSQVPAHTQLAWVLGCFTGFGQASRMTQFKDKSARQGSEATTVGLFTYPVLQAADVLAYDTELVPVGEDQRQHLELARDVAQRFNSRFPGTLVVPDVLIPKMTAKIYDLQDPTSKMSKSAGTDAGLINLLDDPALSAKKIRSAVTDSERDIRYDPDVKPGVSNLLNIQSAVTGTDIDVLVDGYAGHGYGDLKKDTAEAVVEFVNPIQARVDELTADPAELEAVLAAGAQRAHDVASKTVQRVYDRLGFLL
UniProt I6X8D2, whole entry: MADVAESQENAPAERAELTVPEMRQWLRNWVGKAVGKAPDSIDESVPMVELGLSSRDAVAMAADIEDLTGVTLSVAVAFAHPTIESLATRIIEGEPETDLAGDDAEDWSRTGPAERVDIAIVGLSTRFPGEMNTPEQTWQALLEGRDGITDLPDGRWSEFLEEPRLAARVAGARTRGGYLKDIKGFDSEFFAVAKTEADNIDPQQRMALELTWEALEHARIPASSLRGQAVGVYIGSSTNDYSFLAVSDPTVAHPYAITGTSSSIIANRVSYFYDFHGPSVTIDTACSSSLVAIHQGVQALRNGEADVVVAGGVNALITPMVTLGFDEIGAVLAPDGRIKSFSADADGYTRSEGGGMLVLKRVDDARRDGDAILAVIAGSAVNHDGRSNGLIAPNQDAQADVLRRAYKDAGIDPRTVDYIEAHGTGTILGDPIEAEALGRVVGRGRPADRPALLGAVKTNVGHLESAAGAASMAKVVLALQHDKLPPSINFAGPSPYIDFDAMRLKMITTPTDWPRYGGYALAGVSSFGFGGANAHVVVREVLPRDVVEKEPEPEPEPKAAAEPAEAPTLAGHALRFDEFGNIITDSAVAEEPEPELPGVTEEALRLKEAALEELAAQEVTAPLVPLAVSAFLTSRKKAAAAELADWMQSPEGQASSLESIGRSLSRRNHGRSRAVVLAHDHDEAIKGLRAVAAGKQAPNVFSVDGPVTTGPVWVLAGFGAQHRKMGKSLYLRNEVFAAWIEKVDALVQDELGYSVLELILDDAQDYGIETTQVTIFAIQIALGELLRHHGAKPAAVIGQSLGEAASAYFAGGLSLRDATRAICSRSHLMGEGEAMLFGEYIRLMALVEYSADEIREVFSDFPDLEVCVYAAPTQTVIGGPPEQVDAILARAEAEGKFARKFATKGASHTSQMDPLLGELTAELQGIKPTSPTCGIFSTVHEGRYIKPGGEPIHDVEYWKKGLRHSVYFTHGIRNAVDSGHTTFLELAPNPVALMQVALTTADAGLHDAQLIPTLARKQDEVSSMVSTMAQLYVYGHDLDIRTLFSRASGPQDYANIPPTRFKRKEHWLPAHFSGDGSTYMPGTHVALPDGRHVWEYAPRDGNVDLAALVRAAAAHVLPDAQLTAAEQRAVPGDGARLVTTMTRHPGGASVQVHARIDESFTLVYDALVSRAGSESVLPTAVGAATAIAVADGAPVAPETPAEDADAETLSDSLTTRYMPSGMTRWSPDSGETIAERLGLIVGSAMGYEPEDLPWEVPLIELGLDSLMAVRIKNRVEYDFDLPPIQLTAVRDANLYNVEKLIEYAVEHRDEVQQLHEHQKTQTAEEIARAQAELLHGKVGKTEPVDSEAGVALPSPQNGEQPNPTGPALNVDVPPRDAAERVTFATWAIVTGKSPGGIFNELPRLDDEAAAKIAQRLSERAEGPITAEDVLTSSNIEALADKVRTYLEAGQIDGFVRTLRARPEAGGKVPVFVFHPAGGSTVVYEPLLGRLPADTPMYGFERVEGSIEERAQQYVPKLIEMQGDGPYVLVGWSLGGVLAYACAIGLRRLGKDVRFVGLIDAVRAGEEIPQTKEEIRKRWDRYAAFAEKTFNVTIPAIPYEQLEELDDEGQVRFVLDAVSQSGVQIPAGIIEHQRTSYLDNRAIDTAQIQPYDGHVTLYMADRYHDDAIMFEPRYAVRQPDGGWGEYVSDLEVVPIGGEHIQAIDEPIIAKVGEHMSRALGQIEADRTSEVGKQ
UniProt Q8IDJ8, 1-583: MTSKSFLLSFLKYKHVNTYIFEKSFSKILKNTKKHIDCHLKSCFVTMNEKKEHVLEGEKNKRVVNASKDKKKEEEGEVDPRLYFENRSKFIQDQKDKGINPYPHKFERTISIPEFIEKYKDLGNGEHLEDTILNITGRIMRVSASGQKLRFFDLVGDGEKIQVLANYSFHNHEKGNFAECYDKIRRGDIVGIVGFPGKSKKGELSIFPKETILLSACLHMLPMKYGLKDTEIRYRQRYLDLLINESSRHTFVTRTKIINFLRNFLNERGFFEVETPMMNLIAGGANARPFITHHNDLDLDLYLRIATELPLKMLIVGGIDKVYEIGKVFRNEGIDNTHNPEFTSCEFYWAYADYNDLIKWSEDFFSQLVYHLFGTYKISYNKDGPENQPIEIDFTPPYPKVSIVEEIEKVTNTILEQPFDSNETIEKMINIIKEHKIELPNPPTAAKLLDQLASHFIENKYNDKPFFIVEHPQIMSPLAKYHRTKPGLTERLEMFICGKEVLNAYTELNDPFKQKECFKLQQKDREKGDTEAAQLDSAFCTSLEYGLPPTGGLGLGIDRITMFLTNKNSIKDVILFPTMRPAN

A: 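ClpP1P2, Mycobacterium tuberculosis (UniProt P9WPC5 and UniProt P9WPC3). Protease assay of ClpP1P2, read by the AMC dye that it sets free. Tested at 50 µM. Higher reads as stronger inhibition, judged from the few compounds that gave an IC50. Most other retested compounds had strongly negative values. Size under these conditions: about 69,000 compounds, about 10 of them at 50% or above in at least one test.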
B: 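Tryptophan-tRNA ligase, Mycobacterium tuberculosis (UniProt P9WFT3). Enzyme assay of tryptophanyl-tRNA synthetase; the read-out is not stated. Concentration: 10 µM. Higher most likely means stronger inhibition; the record gives no direction and few retests gave an IC50. About 65,000 compounds were tested under these conditions; 0.098% (about 64) showed 50% or more at least once.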
C: 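Enzyme assay of the thioesterase domain of polyketide synthase 13; the read-out is not stated. Target: Polyketide synthase Pks13, Mycobacterium tuberculosis (UniProt I6X8D2). Concentration: 30 µM. Higher reads as stronger inhibition (inferred from which compounds were picked for retests). Of about 67,000 compounds tested this way, about 300 (0.46%) reached 50% or more in at least one test.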
D: 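Lysine-tRNA ligase, Plasmodium falciparum 3D7 (UniProt Q8IDJ8). Enzyme assay of the cytosolic lysyl-tRNA synthetase in 384-well plates, read by luminescence. Compounds at 30 µM. Direction is inferred from only a few compounds that gave an IC50; most scored high, so higher reads as stronger inhibition. About 69,000 compounds were tested under these conditions; 0.071% (about 49) showed 50% or more at least once.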

The filed quantity is “Percent Effect” (%). The controls that fix the scale are not given in the record; negative values are as filed. This is an unselected part of the compounds tested. A dash means the value is not listed here; it may have been measured.

| SMILES | A | B | C | D |
|---|---|---|---|---|
| `NC(=O)CN1CCC(C(=O)NCC(O)c2cccc(F)c2)CC1` (configuration not stated) | -1.215 | -1.234 | -1.405 | 7.738 |
| `Cc1nc(CC(=O)N(C)C2CCCN(CCc3ccccc3)C2)cs1` (configuration not stated) | -9.2 | 1.319 | 2.407 | 2.725 |
| `N[C@@H]1c2ccccc2C2(CCN(C(=O)c3ccccc3O)CC2)[C@H]1O` | -17.56 | -1.319 | 1.94 | -4.009 |
| `CCN1C(=O)CCCC12CCCN(C(=O)c1occc1C)C2` (configuration not stated) | -0.01872 | -6.25 | -25.02 | 3.403 |
| `CN1CCN(CCCNC(=O)C2CCCCC2)CC1` | -3.649 | -1.48 | -18.59 | 5.266 |
| `Cn1nccc1C(=O)N1C[C@@H]2CN(S(C)(=O)=O)CCO[C@@H]2C1` | 0.8973 | - | 10.5 | 3.687 |
| `O=C(CN1CCN(CC(O)C2CC2)CC1)NCc1ccc(F)cc1` (configuration not stated) | -8.115 | 0.9923 | -7.867 | -3.947 |
| `Cc1cc(C2CCC2)nc(N2CCC3(CC2)OCCCC3O)n1` (configuration not stated) | 8.265 | 3.336 | -3.247 | 21.14 |
| `CNC(=O)c1cc(S(=O)(=O)C(C)C)cs1` | 16.48 | -2.061 | -16.01 | 1.774 |
| `NC(=O)c1cccc(C2CCN(c3ncccn3)CC2)n1` | 16.83 | -3.329 | 1.982 | 4.46 |
| `COc1ccc(CN2CCOC(CCc3ccnc(N)c3)C2)cc1` (configuration not stated) | -7.442 | - | 16.81 | -0.6283 |
| `Cc1cc(C(=O)N2CCN(CC(O)Cn3cccn3)CC2)c(C)o1` (configuration not stated) | 8.324 | -1.639 | -1.282 | 7.472 |
| `Cc1ccccc1CS(=O)(=O)NCCCN1CCCCC1` | -5.744 | -2.309 | -13.85 | 1.068 |
| `CCOc1cccc(C(=O)N2CCC(c3n[nH]c(C4CC4)n3)CC2)c1` | 7.464 | -7.668 | -15.56 | -0.37 |
| `COc1nccc(N2CCN(Cc3ccc(C)cc3)C(=O)C2)c1C#N` | 1.987 | 4.06 | -21.12 | -1.817 |
| `CCc1noc(CN(CCS(C)(=O)=O)C(C)(C)C)n1` | 5.119 | -2.449 | -20.06 | 4.347 |
| `Cc1nc(CSCCC(=O)NCc2ccc(N(C)C)cc2)cs1` | -6.038 | -3.762 | -7.003 | -1.791 |
| `COC1CCCN(Cc2cc(O)c3cc(C)cc(C)c3n2)C1` (configuration not stated) | 7.502 | 0.729 | -12.5 | 1.971 |
| `CN1CCN(c2ncc(CNCCCc3cccc(F)c3)cn2)CC1` | 8.703 | 12.17 | -12.66 | -9.013 |
| `COC(=O)CCNC(=O)C1CC(=O)N(C2CCCC2)C1` (configuration not stated) | -6.56 | 6.191 | -4.717 | 6.13 |
| `CCC(=O)Nc1cccc(OCC(=O)N[C@@H]2C[C@H]3CC[C@@H]2C3)c1` | 4.259 | 5.356 | -15.99 | -0.1664 |
| `Cc1ccc(S(=O)(=O)c2ncccc2CN2CCN(C)CC2)cc1` | 9.84 | 0.4902 | -33.15 | 1.6 |
| `Cc1cc2ccccc2n1CCC(=O)N1CCN(C)CC1C(N)=O` (configuration not stated) | -30.99 | -2.64 | 4.778 | 1.722 |
| `c1cnc(N2CCOCC3(CCCN(Cc4cccs4)C3)C2)nc1` (configuration not stated) | 10.61 | 10.16 | -39.2 | -1.59 |
| `c1cc(CN2CCO[C@H]3[C@H](OCCN4CCCC4)CC[C@@H]32)co1` | -10.16 | 0.4433 | -12.51 | -2.948 |
| `CCOc1ccc(NC(=O)N(C)Cc2cnn(C)c2)c(C)c1` | -9.939 | 17.23 | - | -0.1623 |
| `CC[C@H]1N(C)CCC[C@]12CCC(=O)N2Cc1ccncc1` | 21.93 | 0.229 | -24.44 | -3.636 |
| `Cc1cnn(CC2CCCN2C(=O)c2cc(O)nc3ccccc23)c1` (configuration not stated) | -44.35 | 0.8777 | -13.25 | 2.276 |
| `CCc1ocnc1C(=O)N1CCN(c2nncc3ccccc23)CC1` | 5.232 | 6.05 | -28.8 | 4.092 |
| `COc1cc(OC)c(CNC(=O)NCC(=O)N(C)C)c(OC)c1` | -0.1954 | 0 | -29.73 | 5.499 |
| `N#Cc1ccsc1NC(=O)CCN1CCn2c(nnc2C2CC2)C1` | -7.876 | -1.74 | -11.6 | -0.8575 |
| `CCOc1c(CNC2CSCCSC2)cccc1OC` | 7.991 | 16.35 | -11.92 | -0.3199 |
| `C[C@H](O)CNc1cc(-c2ccncc2)ncn1` | 7.083 | - | -2.752 | 4.953 |
| `CN(CCc1ccccn1)C(=O)c1cn(CCN2CCNCC2)nn1` | -4.272 | -3.922 | -40.76 | 2.118 |
| `Cc1ccc(CN2C[C@@H](C(=O)O)[C@H](c3cccnc3)C2)s1` | 5.033 | 3.128 | -55.74 | 3.717 |
| `Cc1cnc(C(=O)N2CC[C@@H]3CN(c4ncccn4)CCO[C@@H]3C2)cn1` | -6.619 | 3.284 | -5.355 | -1.59 |
| `COc1cc(OC)cc(C2SCC(=O)Nc3ccsc32)c1` (configuration not stated) | 4.254 | -3.141 | -68.37 | 0.9056 |
| `c1ccc(CN2CCC3(CC2)CCN(c2ccccn2)C3)nc1` | 7.828 | - | -14.56 | 5.229 |
| `CC(O)CN(Cc1cccc(C(N)=O)c1)c1ccccc1` (configuration not stated) | -0.5558 | 0.09633 | -15.12 | -2.091 |
| `O=C(NCc1ccccc1-n1cccn1)N1CCN2CCCCC2C1` (configuration not stated) | -1.242 | -0.2534 | -15.04 | 4.606 |
| `CCc1c(C)nn(CCNC(=O)c2cnn[nH]2)c1C` | -14.07 | -4.724 | -57.52 | 6.521 |
| `CC(C)N(C)C(=O)C1CSCN1S(=O)(=O)c1ccccc1F` (configuration not stated) | 0.9873 | -0.6744 | -38.82 | -0.4635 |
| `Cn1cnc2c1C(COCC1CCOCC1)CN(C(=O)c1ccoc1)C2` (configuration not stated) | 20.14 | -4.053 | -19.98 | 0.8937 |
| `COc1ccc(C(CO)NC(=O)Nc2cccc(C(C)=O)c2)cc1` (configuration not stated) | -3.301 | -2.741 | -14.42 | 1.707 |
| `CS(=O)(=O)NCCCN1CCCC1c1ccccc1` (configuration not stated) | -10.71 | -4.485 | -35.67 | 10.73 |
| `Cn1nccc1CCC(=O)N1CCCC(c2cnccn2)C1` (configuration not stated) | 2.414 | 15.48 | 54.16 | -1.575 |
| `c1ncc(CN2CC(Cc3nccc4cc[nH]c34)C2)cn1` | -26.78 | -3.907 | -1.372 | 2.317 |
| `Cn1ncc2c1C(COCC1CC1)N(Cc1ccoc1)CC2` (configuration not stated) | -16.47 | 1.936 | 0.5635 | -0.6902 |
| `Cc1ccc(N2CCCC(NCc3cccc4c3OCO4)C2)nn1` (configuration not stated) | -23.54 | -4.802 | -5.469 | -1.15 |
| `CN1CCC(N2CCC(C(=O)N(C)C)CC2)CC1` | 9.04 | - | 8.4 | 4.319 |
| `O=C(O)C1CN(c2cncc(Cc3ccccc3F)n2)C1` | -599.5 | -5.39 | 21.38 | 3.159 |
| `CCN1CCCC1CNC(=O)c1cc(COc2cccc(F)c2)[nH]n1` (configuration not stated) | -18.7 | -2.563 | -8.094 | 0.4581 |
| `COCCNC(=O)Nc1ccc(-n2cncn2)c(F)c1` | 6.876 | -4.403 | -7.5 | -4.426 |
| `Cc1ccc(NC(=O)N2CC(C(=O)NC(C)C)C3(CCOCC3)C2)cc1` (configuration not stated) | 2.036 | -1.146 | -1.421 | 13.33 |
| `O=C1CC2(CCN(Cc3ccoc3)C2)CN1c1cncnc1` (configuration not stated) | 1.394 | -2.964 | -21.9 | 4.863 |
| `CC(C)n1cc(C(=O)NCCN(C)C)c2n[nH]c(=O)c-2c1` | -7.76 | -5.756 | 3.87 | 4.544 |
| `O=C1Nc2ccccc2CC12CCCN2Cc1ccccn1` (configuration not stated) | -7.288 | -0.2593 | -58.95 | -7.703 |
| `CCC(c1ccncc1)N(C)S(C)(=O)=O` (configuration not stated) | -6.557 | -4.863 | -18.72 | 5.034 |
| `CN(CC(F)(F)F)C(=O)Cn1cc(NC(=O)C(C)(C)C)cn1` | 0.4111 | -1.709 | -13.75 | 8.998 |

Some entries from above, unchanged:

| SMILES | A | B | C | D |
|---|---|---|---|---|
| `CN(CC(F)(F)F)C(=O)Cn1cc(NC(=O)C(C)(C)C)cn1` | 0.4111 | -1.709 | -13.75 | 8.998 |
| `COc1nccc(N2CCN(Cc3ccc(C)cc3)C(=O)C2)c1C#N` | 1.987 | 4.06 | -21.12 | -1.817 |
| `Cc1nc(CSCCC(=O)NCc2ccc(N(C)C)cc2)cs1` | -6.038 | -3.762 | -7.003 | -1.791 |
| `Cn1cnc2c1C(COCC1CCOCC1)CN(C(=O)c1ccoc1)C2` (configuration not stated) | 20.14 | -4.053 | -19.98 | 0.8937 |
| `Cc1cnn(CC2CCCN2C(=O)c2cc(O)nc3ccccc23)c1` (configuration not stated) | -44.35 | 0.8777 | -13.25 | 2.276 |
| `O=C(CN1CCN(CC(O)C2CC2)CC1)NCc1ccc(F)cc1` (configuration not stated) | -8.115 | 0.9923 | -7.867 | -3.947 |
| `CCC(c1ccncc1)N(C)S(C)(=O)=O` (configuration not stated) | -6.557 | -4.863 | -18.72 | 5.034 |
| `O=C1Nc2ccccc2CC12CCCN2Cc1ccccn1` (configuration not stated) | -7.288 | -0.2593 | -58.95 | -7.703 |

Data taken from ChEMBL document CHEMBL3988442, “University of Dundee, Small-Polar-MMV Screening Library” (2021).